Results: patent publication US20240084023A1 (NGM BIOPHARMACEUTICALS, published 2024)
Numbering of substitutions follows the chain as printed. Results are given in words; binding and its absence hold for the method and conditions named. Some binding calls cover weakened binding; strength is not graded here.

By UniProt entry, the sequences of proteins in these tests, tags left out. Where a name states a change or a piece, a line headed by the entry shows the natural chain unless it says otherwise.
UniProt P47871: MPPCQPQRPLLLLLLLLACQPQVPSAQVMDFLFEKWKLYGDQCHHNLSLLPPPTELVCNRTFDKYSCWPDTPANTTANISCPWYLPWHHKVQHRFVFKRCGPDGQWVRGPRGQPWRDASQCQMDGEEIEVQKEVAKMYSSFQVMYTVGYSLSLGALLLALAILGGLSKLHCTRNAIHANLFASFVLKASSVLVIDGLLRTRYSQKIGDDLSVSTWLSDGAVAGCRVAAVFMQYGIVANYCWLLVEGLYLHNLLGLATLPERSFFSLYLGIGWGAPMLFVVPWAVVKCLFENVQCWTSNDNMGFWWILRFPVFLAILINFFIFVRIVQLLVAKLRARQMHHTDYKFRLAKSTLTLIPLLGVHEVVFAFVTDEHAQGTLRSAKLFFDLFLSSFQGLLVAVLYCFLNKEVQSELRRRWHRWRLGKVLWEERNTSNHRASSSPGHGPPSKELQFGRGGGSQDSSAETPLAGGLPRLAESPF

B1: anti-GCGR antibody 6B5 (antibody, V domains shown)
VH: QVQLQQSGTELVRPGTSVKISCKASGFTFTNHWLGWVKQRPGHGLEWIGDIYPGGYYINYNEKFKGKATLTADTSSSTAYMQLSSLTSEDSAVYFCARHTNYGSDYWGQGTTLTVSS
VL: DVLMTQIPLSLPVSLGDQASISCRSSQSIVDSYGNTFLEWYLQKPGQSPKLLIYKVSNRLSGVPDRFSGTGAGTDFTLKISRVEAEDLGIYYCFQGSHVPWTFGGGTKLEIK
notes: mouse hybridoma monoclonal antibody; also called 61B5
B2: anti-GCGR antibody 13G9 (antibody, V domains shown)
VH: QVQLQQSGAELVRPGTSVKISCKASGYTFTNYWLGWVKQRPGHGLEWIGDIYPGGDYNNYNGKFKGKATLTADTSSSTAYIQLSSLTSEDSAVYFCVRSDDGYSWGQGTTLTVSS
VL: DVLMTQTPLSLPVSLGDQASISCRSSQSIVDSYGNTYLEWYQQKPGQSPTLLIYKVSNRFAGVPDRFSGSGSGTDFTLKISRVEAEDLGVYYCFQGSHIPWTFGGGTKVEIK
notes: mouse hybridoma monoclonal antibody; also called 13G19
B3: anti-GCGR antibody 14E9 (antibody, V domains shown)
VH: QVQLQQSGAELVRPGTSVKMSCKAAGYTFTNYWIGWVKQRPGHGLEWIGDISPGNYYTNYNAKFKDKVSLTADTSSSTAYMQLSSLTSEDSAIYYCARYDEFAYWGQGTLVTVSA
VL: B2 VL with P12S, D31H, Y33D, Q42L, T50K, A61S, I99V, V109L
notes: mouse hybridoma monoclonal antibody; also called 13E9
B4: anti-GCGR antibody 14F4 (antibody, V domains shown)
VH: QVQLQQSGAELVRPGTSVNMSCKATGYTFTNYWIGWVKQRPGHGLEWIGDIFPGGFYSNYNEKFKGKATLTTDTSSSTGYMQLSSLTSEDSAIYYCARIWDRGFDYWGQGTTLTVSS
VL: B1 VL with I7S, F37Y, L60F, T70S, A72S, L88R, I90L, W101Y
notes: mouse hybridoma monoclonal antibody; also called 141F4
B5: anti-GCGR antibody 4F8 (antibody, V domains shown)
VH: QVQLQQSGAELVRPGTSVTMSCKAAGYTFSNYWIGWVKQRPGHGLEWIGDIYPGGFYDNYNDKFKGKATLTTDTSSSTAYMQLSSLTSEDSAIYYCTRSGGLPGAGFTYWGQGTLVTVSA
VL: B2 VL with S28H, D31Y, Y33D, Q42L, T50K, A61S, K79E, I99V, V109L
notes: mouse hybridoma monoclonal antibody
B6: anti-GCGR antibody 1C1 (antibody, V domains shown)
VH: EVQLQQSGPELVKPGATVKMSCKASGYTFTRNVIHWVKQKPGQGLEWIGYINPYNDGAKYNAKFKGKATVTSDKSSSTAYMELSSLTSEDSAVYYCARWGNYEDFAMDYWGQGTSVTVSS
VL: NIVLTQSPPSLAVSLGQRATISCRASESVDIYGNSYMHWYQQKPGQPPKLLIYLASNLESGVPARFSGSGSRTEFSLTIDPVEAGDAATYYCQQNNEDPFTFGGGTKLEIK
notes: as for B5
B7: anti-GCGR antibody 1H2 (antibody, V domains shown)
VH: QVQLQQPGAELVKPGASVKMSCKVSGYTFTSYWITWVKQRPGQGLEWIGDIHPGGGDTNYNKKFKSKATLTVDTSSSTAYMQLSSLTSEDSAVYHCTSDDNYVGFTYWGQGTLVTVSA
VL: B2 VL with S28T, V30I, D31H, Y33D, Q42L, T50I, A61S, I99V, V109L
notes: as for B5
B8: anti-GCGR antibody 1C3 (antibody, V domains shown)
VH: EVQLQQSGPELVKPGASVKMSCKASGYTFTSSVMHWVKQKPGQALEWIGYINPYNDGTKYNENFKGKATLTSDRSSTTAYMELSSLTSEDSAVYYCVTGAGYDRGPMAMDYWGQGTSVTVSS
VL: NIVLTQSPASLAVSLGQRATISCRASESVDSYGDSFVHWYQQKPGQPPKLLIYFASNLESGVPARFSGSGSRTDFTLTIDPVEADDTATYYCQQNNEVPFTFGSGTKLELK
notes: as for B5

Molecular target: T1, soluble human GCGR extracellular domain (human, UniProt P47871 26-136, limits assumed)
T1 construct: also called soluble GCGR
Assay: Octet, antibody immobilized on biosensor tip, 500 nM soluble human GCGR extracellular domain

binding, binds:
B1
B2
B3
B4
B5
B6
B7
B8
